From paper PMC10983667
These are yes or no findings as the source states them, for the method shown. Binding seen in cells or lysates may run through a third protein. Some entries that bind do so weakly or less than the wild type.

Chains of the proteins cited; added tags and fusions are not shown.
UniProt P83741: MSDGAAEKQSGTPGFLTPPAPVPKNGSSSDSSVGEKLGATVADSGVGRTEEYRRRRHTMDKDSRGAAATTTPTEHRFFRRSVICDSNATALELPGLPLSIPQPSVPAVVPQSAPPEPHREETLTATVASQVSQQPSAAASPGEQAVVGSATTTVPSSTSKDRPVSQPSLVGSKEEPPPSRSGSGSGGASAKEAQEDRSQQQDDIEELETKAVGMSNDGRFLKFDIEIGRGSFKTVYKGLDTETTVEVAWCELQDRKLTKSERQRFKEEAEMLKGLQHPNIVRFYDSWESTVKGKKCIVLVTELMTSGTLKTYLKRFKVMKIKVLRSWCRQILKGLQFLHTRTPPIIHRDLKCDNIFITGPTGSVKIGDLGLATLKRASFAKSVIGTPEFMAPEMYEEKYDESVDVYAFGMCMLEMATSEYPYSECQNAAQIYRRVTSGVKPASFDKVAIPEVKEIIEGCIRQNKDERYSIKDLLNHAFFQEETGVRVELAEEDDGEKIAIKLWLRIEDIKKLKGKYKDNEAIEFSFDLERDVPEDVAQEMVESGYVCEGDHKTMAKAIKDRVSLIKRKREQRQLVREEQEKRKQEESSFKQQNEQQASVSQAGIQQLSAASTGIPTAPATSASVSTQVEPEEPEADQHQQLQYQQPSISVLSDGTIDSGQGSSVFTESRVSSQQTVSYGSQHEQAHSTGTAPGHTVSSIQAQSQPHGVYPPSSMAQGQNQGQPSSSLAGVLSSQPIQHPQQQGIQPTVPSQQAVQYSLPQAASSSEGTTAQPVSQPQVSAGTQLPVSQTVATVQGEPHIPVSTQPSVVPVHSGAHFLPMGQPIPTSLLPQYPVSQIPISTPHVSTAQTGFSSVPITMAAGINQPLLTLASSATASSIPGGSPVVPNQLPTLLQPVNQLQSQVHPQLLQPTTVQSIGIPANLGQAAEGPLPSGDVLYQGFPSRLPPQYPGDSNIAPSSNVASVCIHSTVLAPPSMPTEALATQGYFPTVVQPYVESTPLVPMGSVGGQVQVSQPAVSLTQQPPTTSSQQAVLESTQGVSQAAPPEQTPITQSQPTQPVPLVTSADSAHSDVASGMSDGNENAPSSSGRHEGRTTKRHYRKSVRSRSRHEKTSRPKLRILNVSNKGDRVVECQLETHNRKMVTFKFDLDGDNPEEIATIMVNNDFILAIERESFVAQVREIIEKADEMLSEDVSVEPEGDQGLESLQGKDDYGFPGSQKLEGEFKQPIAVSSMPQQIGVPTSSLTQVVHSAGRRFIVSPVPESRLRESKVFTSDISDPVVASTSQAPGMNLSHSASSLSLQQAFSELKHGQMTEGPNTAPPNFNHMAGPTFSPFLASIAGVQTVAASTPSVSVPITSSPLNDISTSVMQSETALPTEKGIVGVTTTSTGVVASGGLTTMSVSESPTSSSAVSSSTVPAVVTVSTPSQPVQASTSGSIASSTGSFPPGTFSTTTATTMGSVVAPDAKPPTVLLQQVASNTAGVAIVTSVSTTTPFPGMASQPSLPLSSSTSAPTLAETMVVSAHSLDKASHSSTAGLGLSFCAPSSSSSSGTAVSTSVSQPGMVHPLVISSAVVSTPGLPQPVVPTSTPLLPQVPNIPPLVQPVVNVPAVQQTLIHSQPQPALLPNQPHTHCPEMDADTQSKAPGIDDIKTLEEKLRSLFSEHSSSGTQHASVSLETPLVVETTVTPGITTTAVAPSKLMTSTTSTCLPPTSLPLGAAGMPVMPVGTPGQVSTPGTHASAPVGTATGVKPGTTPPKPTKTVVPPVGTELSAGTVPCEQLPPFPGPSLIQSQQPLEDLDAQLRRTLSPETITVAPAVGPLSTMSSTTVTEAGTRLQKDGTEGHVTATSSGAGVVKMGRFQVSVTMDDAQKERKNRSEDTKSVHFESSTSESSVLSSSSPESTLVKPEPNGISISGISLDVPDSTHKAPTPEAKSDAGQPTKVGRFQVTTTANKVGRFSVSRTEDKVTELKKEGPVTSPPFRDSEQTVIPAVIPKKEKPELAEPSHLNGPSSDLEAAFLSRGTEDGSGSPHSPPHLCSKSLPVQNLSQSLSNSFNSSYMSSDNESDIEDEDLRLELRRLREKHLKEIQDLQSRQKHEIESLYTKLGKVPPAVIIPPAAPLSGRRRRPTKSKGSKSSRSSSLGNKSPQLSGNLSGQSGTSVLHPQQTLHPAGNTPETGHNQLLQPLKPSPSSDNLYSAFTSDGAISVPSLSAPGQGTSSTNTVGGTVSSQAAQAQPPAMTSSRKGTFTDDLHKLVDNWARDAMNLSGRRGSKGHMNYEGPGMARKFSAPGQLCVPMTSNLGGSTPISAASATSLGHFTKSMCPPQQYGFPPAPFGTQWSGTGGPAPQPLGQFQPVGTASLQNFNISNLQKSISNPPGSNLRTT

Molecular target: T1, CYLD (endogenous, mouse BMSCs) (mouse (endogenous in BMSCs)) (UniProt Q80TQ2)
T1 sequence: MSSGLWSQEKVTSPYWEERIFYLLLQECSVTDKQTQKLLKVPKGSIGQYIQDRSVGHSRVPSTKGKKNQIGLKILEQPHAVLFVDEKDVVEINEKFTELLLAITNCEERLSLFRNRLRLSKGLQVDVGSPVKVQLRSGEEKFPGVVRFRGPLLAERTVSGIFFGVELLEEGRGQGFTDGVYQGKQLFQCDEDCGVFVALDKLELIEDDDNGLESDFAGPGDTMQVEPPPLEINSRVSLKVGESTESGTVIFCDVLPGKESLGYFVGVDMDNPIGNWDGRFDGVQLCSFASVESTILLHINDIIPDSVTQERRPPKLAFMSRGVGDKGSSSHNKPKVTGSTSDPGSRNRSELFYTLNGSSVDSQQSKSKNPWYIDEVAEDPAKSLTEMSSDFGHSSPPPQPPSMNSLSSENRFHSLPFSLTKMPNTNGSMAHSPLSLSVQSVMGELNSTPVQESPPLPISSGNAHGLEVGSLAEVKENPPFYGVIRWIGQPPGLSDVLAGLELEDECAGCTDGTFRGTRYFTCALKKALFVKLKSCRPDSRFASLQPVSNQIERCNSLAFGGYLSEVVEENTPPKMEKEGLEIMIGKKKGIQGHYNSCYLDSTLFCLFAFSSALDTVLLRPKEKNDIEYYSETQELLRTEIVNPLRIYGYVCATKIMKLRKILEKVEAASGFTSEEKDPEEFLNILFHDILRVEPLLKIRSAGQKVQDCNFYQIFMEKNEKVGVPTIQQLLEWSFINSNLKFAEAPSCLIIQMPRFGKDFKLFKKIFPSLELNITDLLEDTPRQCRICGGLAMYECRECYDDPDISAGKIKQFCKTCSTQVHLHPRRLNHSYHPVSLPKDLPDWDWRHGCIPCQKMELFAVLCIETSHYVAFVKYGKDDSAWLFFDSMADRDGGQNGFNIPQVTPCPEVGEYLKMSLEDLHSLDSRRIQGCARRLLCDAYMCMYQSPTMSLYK
Test: co-IP; endogenous proteins of OVX BMSCs or normal BMSCs; Protein A/G Plus magnetic beads with antibodies to CYLD, WNK1 or IgG overnight at 4 °C; blots for CYLD or WNK1

- binding: binds
Substance: WNK1 (endogenous, mouse BMSCs) (from UniProt P83741 1-2377) (enzyme)
